In article PMC8649873 one finds binding data, which are given here for seven molecules.

Protein sequences, listed by entry. Tags and fused reporters are not part of them.
UniProt Q9UMX0: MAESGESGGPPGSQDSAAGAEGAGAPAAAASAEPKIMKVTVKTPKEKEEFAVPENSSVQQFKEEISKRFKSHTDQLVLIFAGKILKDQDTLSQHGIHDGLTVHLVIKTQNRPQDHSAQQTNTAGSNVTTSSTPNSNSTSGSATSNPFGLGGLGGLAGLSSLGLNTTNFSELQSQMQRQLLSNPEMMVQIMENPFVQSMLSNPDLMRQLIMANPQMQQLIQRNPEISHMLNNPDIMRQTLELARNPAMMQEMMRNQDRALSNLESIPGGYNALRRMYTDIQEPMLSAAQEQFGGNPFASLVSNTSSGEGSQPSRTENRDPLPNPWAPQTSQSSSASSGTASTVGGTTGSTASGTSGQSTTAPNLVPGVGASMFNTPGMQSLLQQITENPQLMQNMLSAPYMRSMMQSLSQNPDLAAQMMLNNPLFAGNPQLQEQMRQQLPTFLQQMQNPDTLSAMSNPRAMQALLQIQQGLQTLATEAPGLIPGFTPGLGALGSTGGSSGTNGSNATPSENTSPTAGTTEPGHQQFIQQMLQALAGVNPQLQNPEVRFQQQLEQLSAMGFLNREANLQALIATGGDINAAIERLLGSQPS

Results are given in words; binding and its absence hold for the method and conditions named. Binding seen in cells or lysates may run through a third protein. A yes stands for co-enrichment or nearness to the bait. Other partners may have been found. Sequences can lack the tags named with a protein.

T1: HA-tagged wild-type BET1 (human) (UniProt O15155)
T1 sequence: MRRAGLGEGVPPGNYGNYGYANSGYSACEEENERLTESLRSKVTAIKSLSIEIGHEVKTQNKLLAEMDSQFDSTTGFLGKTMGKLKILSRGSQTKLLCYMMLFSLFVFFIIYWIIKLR

B1: YKT6 (protein, UniProt O15498 1-198)
chain: MKLYSLSVLYKGEAKVVLLKAAYDVSSFSFFQRSSVQEFMTFTSQLIVERSSKGTRASVKEQDYLCHVYVRNDSLAGVVIADNEYPSRVAFTLLEKVLDEFSKQVDRIDWPVGSPATIHYPALDGHLSRYQNPREADPMTKVQAELDETKIILHNTMESLLERGEKLDDLVSKSEVLGTQSKAFYKTARKQNSCCAIM
B2: SEC20 (protein, UniProt Q12981 1-228)
chain: MAAPQDVHVRICNQEIVKFDLEVKALIQDIRDCSGPLSALTELNTKVKEKFQQLRHRIQDLEQLAKEQDKESEKQLLLQEVENHKKQMLSNQASWRKANLTCKIAIDNLEKAELLQGGDLLRQRKTTKESLAQTSSTITESLMGISRMMAQQVQQSEEAMQSLVTSSRTILDANEEFKSMSGTIQLGRKLITKYNRRELTDKLLIFLALALFLATVLYIVKKRLFPFL
B3: DNAJC7 (protein, UniProt Q99615 1-494)
chain: MAAAAECDVVMAATEPELLDDQEAKREAETFKEQGNAYYAKKDYNEAYNYYTKAIDMCPKNASYYGNRAATLMMLGRFREALGDAQQSVRLDDSFVRGHLREGKCHLSLGNAMAACRSFQRALELDHKNAQAQQEFKNANAVMEYEKIAETDFEKRDFRKVVFCMDRALEFAPACHRFKILKAECLAMLGRYPEAQSVASDILRMDSTNADALYVRGLCLYYEDCIEKAVQFFVQALRMAPDHEKACIACRNAKALKAKKEDGNKAFKEGNYKLAYELYTEALGIDPNNIKTNAKLYCNRGTVNSKLRKLDDAIEDCTNAVKLDDTYIKAYLRRAQCYMDTEQYEEAVRDYEKVYQTEKTKEHKQLLKNAQLELKKSKRKDYYKILGVDKNASEDEIKKAYRKRALMHHPDRHSGASAEVQKEEEKKFKEVGEAFTILSDPKKKTRYDSGQDLDEEGMNMGDFDPNNIFKAFFGGPGGFSFEASGPGNFFFQFG
B4: GOSR2 (protein, UniProt O14653 1-212)
chain: MDPLFQQTHKQVHEIQSCMGRLETADKQSVHIVENEIQASIDQIFSRLERLEILSSKEPPNKRQNARLRVDQLKYDVQHLQTALRNFQHRRHAREQQERQREELLSRTFTTNDSDTTIPMDESLQFNSSLQKVHNGMDDLILDGHNILDGLRTQRLTLKGTQKKILDIANMLGLSNTVMRLIEKRAFQDKYFMIGGMLLTCVVMFLVVQYLT
B5: eukaryotic translation initiation factor 4E transporter (EIF4ENIF1) (protein, UniProt Q9NRA8 1-985)
chain: MDRRSMGETESGDAFLDLKKPPASKCPHRYTKEELLDIKELPHSKQRPSCLSEKYDSDGVWDPEKWHASLYPASGRSSPVESLKKELDTDRPSLVRRIVDPRERVKEDDLDVVLSPQRRSFGGGCHVTAAVSSRRSGSPLEKDSDGLRLLGGRRIGSGRIISARTFEKDHRLSDKDLRDLRDRDRERDFKDKRFRREFGDSKRVFGERRRNDSYTEEEPEWFSAGPTSQSETIELTGFDDKILEEDHKGRKRTRRRTASVKEGIVECNGGVAEEDEVEVILAQEPAADQEVPRDAVLPEQSPGDFDFNEFFNLDKVPCLASMIEDVLGEGSVSASRFSRWFSNPSRSGSRSSSLGSTPHEELERLAGLEQAILSPGQNSGNYFAPIPLEDHAENKVDILEMLQKAKVDLKPLLSSLSANKEKLKESSHSGVVLSVEEVEAGLKGLKVDQQVKNSTPFMAEHLEETLSAVTNNRQLKKDGDMTAFNKLVSTMKASGTLPSQPKVSRNLESHLMSPAEIPGQPVPKNILQELLGQPVQRPASSNLLSGLMGSLEPTTSLLGQRAPSPPLSQVFQTRAASADYLRPRIPSPIGFTPGPQQLLGDPFQGMRKPMSPITAQMSQLELQQAALEGLALPHDLAVQAANFYQPGFGKPQVDRTRDGFRNRQQRVTKSPAPVHRGNSSSPAPAASITSMLSPSFTPTSVIRKMYESKEKSKEEPASGKAALGDSKEDTQKASEENLLSSSSVPSADRDSSPTTNSKLSALQRSSCSTPLSQANRYTKEQDYRPKATGRKTPTLASPVPTTPFLRPVHQVPLVPHVPMVRPAHQLHPGLVQRMLAQGVHPQHLPSLLQTGVLPPGMDLSHLQGISGPILGQPFYPLPAASHPLLNPRPGTPLHLAMVQQQLQRSVLHPPGSGSHAAAVSVQTTPQNVPSRSGLPHMHSQLEHRPSQRSSSPVGLAKWFGSDVLQQPLPSMPAKVISVDELEYRQ
B6: ERGIC-53 (protein, UniProt P49257 31-510)
chain: DGVGGDPAVALPHRRFEYKYSFKGPHLVQSDGTVPFWAHAGNAIPSSDQIRVAPSLKSQRGSVWTKTKAAFENWEVEVTFRVTGRGRIGADGLAIWYAENQGLEGPVFGSADLWNGVGIFFDSFDNDGKKNNPAIVIIGNNGQIHYDHQNDGASQALASCQRDFRNKPYPVRAKITYYQNTLTVMINNGFTPDKNDYEFCAKVENMIIPAQGHFGISAATGGLADDHDVLSFLTFQLTEPGKEPPTPDKEISEKEKEKYQEEFEHFQQELDKKKEEFQKGHPDLQGQPAEEIFESVGDRELRQVFEGQNRIHLEIKQLNRQLDMILDEQRRYVSSLTEEISKRGAGMPGQHGQITQQELDTVVKTQHEILRQVNEMKNSMSETVRLVSGMQHPGSAGGVYETTQHFIDIKEHLHIVKRDIDNLVQRNMPSNEKPKCPELPPFPSCLSTVHFIIFVVVQTVLFIGYIMYRSQQEAAAKKFF

This test deals with T1, HA-tagged wild-type BET1 (human). The test is described as follows: affinity purification with mass spectrometry; HEK293T cells transiently transfected with HA-tagged wild-type BET1 or BET1 Ile51Ser (mock-transfected as control); three independent AP-MS experiments, spectral counts.
Consider “Ubiquilin 1 (UBQLN1) (from UniProt Q9UMX0 1-589)”, for which the binding result is “binds”.

In the case of B1, the binding result was “binds”.

As for B2, the binding result is on record as “binds”.

For B3, the binding entry is recorded as “binds”.

For B4, the binding result is on record as “binds”.

In the case of B5, the binding result is on record as “binds”.

On to B6, for which the binding result is reported as “binds”.
